# Values quoted from earlier work, collected in patent publication US11471414B2, “Compositions and methods for the treatment and prophylaxis of surgical site infections” (Polypid Ltd., priority 2014, dated 2022).
# At least one structure is not confirmed: it was looked up by name or label, or the drawing left a doubt.
# Tested on: S. aureus
# Conditions: cited from earlier work
compound,measurement,value
C[C@H]1c2cccc(O)c2C(=O)C2=C(O)[C@]3(O)C(=O)C(C(N)=O)=C(O)[C@@H](N(C)C)[C@@H]3[C@@H](O)[C@@H]21 [Doxycycline],minimal inhibitory concentration (MIC),≥ 0.1 µg/mL
